Laboratory results from article PMC4811775.
Results are given in words; binding and its absence hold for the method and conditions named. In cells and extracts the contact can be indirect. Some results given as binding are weak or reduced against the parent protein; the word gives no strength.

Molecular target: Polo-like kinase 1 (PLK1), endogenous (human (endogenous in HeLa)) (UniProt P53350)
Test: co-IP; endogenous proteins from HeLa cell lysates (RIPA buffer), control conditions or nocodazole treatment to arrest cells at M phase; polyclonal antibodies and protein A-Sepharose, 1 hr; Western blot

binding: binds
Substance: CRAF, endogenous (from UniProt P04049 1-648)
